Not every detail of the peptide structures is certain; ends, links or a residue may be inferred. Ends that are not written are not given here.
System: human tyrosinase
Experiment: Tyrosinase activity in cultured human melanocytes treated with Lipofectamine-delivered synthetic peptide
Format: cell-based
Conditions: 22 hours

Sequence: EDYHSLYQSHL [synthetic peptide, Glu-Asp-Tyr-His-(Ser)505 -Leu-Tyr-Gln-(Ser)509 -His-Leu]
- Tyr Act/μg Protein (5 μg/dish peptide with 10 μl Lipofectamine): 17152.6
- Tyr Act/μg Protein (10 μg/dish peptide with 10 μl Lipofectamine): 9536.9
- Tyr Act/μg Protein (20 μg/dish peptide with 10 μl Lipofectamine): 7811.3

— patent publication US5962417A, “Methods of modulating melanin synthesis” (Trustees of Boston University, priority 1998, dated 1999)
